Drawing on PubChem BioAssay AID434970 (Sanford-Burnham Center for Chemical Genomics, 2010), this text covers activation factor for eight compounds.

The list shows a part of the results.

The test system of the test is intestinal alkaline phosphatase [Mus musculus]. Briefly: activators of mouse IAP, confirmation, biochemical, luminescence, single concentration (AID 434970). The settings on record: purified mouse IAP, CDP-Star luminescence, 30 min; measured here: IAP activation factor; at 10 µM; stronger effect = higher value.
As for `O=C(COc1ccccc1)OC1CN2CCC1CC2` (stereo not drawn), the activation factor is 0.859.
Next, `O=[N+]([O-])c1cc([N+](=O)[O-])c(-c2ccn[nH]2)s1`: 0.316; `COc1ccc(OP(C)(=O)Nc2cccc(F)c2)cc1` (stereo not drawn): 0.97.
As for `O=P1(Nc2ccccn2)COc2ccccc2OC1`, the figure is 1.07; as for `CCOP(C)(=S)SCC(=O)NC(C)(CC)C(=O)O` (stereo not drawn), 0.904; as for `COc1ccc(OP(C)(=O)Nc2cccc(Br)c2)cc1` (stereo not drawn), 1.06.
As for `CCN(CC)CC(O)COC(=O)C(O)(c1ccccc1)C1CCCCC1` (stereo not drawn), the figure is 0.954; as for `C[N+]1=C2C=CC=CC=C2SC12C([N+](=O)[O-])=CC([N+](=O)[O-])=C[C-]2[N+](=O)[O-]` (stereo not drawn), 0.251.
